In publication PMC10850505, “Molecular mechanism of specific HLA-A mRNA recognition by the RNA-binding-protein hMEX3B to promote tumor immune escape”:
No constants are given. Whether binding was seen depends on the method and setting.

Key:
[1] = molecular target: hMEX3B tandem KH1/2 domains (residues 56-230) (human) (UniProt Q6ZN04); experiment: SAXS; KH1/2 apo form and 12-nt RNA-bound form in solution; sample concentrations 1 to 5 mg/ml; beamline BL19U2, SSRF; both purified
[2] = molecular target: hMEX3B tandem KH1/2 domains (residues 56-230) (human) (UniProt Q6ZN04); experiment: SEC-MALS; Superdex 75 Increase 10/300 GL; 20 mM Bis-Tris pH 6.5, 150 mM NaCl, 2 mM DTT; room temperature; hMEX3B 2 mg/ml, apo and mixed with 12-nt RNA at 1:1.2; both purified

B1: hMEX3B tandem KH1/2 domains (residues 56-230) (domain or fragment, UniProt Q6ZN04 56-230)
chain: DSEPRKKSVNMTECVPVPSSEHVAEIVGRQGCKIKALRAKTNTYIKTPVRGEEPVFVVTGRKEDVAMARREIISAAEHFSMIRASRNKNTALNGAVPGPPNLPGQTTIQVRVPYRVVGLVVGPKGATIKRIQQQTHTYIVTPSRDKEPVFEVTGMPENVDRAREEIEAHIALRTG
Question: Which binding [1] does the source give for B1 here?
Answer: Its binding is “no binding (tested: 1 to 5 mg/ml)”.

Question: And the binding [2]?
Answer: Its binding is “no binding (tested: 2 mg/ml)”.
